Results are given in words; binding and its absence hold for the method and conditions named. In cells and extracts the contact can be indirect. Some entries that bind do so weakly or less than the wild type. Where a sequence is shown, tags or fusion partners need not be part of it.
Biological target: T1, Flag-tagged RecQL4 Q253H (N-terminal sld2 domain mutation) (human) (UniProt O94761)
T1 sequence: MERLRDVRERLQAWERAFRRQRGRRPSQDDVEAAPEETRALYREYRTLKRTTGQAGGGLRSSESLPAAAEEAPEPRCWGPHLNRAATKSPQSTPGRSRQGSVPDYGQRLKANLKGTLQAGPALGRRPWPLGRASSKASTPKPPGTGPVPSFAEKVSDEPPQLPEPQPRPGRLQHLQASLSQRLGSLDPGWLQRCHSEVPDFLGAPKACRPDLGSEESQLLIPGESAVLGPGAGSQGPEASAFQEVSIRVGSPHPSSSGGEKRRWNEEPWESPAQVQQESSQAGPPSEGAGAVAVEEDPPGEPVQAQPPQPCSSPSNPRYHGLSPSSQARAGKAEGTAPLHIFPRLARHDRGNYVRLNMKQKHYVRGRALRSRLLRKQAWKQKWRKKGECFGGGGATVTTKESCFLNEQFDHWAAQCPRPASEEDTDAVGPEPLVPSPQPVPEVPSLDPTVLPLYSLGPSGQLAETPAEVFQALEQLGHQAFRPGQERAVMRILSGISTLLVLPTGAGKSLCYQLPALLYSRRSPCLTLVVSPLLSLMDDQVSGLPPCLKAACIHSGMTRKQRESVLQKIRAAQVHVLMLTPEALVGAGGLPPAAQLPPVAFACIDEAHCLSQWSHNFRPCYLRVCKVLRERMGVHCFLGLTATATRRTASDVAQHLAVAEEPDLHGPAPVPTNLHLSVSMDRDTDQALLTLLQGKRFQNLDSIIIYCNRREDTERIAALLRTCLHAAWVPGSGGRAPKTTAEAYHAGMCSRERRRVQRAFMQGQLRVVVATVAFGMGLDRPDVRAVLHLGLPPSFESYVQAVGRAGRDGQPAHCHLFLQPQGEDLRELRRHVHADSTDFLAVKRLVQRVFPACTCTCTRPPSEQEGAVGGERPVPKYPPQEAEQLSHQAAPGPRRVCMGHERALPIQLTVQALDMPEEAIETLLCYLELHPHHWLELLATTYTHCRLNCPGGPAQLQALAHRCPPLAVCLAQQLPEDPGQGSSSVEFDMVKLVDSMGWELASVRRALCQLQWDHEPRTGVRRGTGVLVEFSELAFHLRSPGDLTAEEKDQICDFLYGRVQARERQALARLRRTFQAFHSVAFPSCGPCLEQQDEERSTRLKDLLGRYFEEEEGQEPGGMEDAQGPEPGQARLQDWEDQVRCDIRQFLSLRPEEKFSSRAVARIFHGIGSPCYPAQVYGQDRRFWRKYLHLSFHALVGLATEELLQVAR
Assay: co-IP; anti-Flag M2 affinity gel; whole-cell lysates of transfected 293T cells, 1.0 mg protein in lysis buffer (50 mM Tris-HCl pH 7.5, 150 mM NaCl, 1% NP-40, 5 mM EDTA, 5 mM EGTA); 4 °C, 3-4 h; Western blot

Amino acid sequences for entries named in this document (tags omitted).
UniProt Q96GD4: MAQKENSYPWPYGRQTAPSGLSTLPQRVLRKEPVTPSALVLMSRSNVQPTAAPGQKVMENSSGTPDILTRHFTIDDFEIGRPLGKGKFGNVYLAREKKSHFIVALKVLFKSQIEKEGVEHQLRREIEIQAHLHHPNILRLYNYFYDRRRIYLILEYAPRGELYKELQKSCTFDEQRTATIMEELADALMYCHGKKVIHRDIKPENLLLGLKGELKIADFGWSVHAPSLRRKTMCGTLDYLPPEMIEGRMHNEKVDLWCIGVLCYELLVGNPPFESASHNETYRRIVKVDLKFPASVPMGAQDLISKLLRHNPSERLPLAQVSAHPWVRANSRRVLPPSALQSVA

binding: binds
Substance: endogenous (native) Aurora B kinase (AURKB) of 293T cells (from UniProt Q96GD4 1-344)

— paper PMC6134139
